Results are given in words; binding and its absence hold for the method and conditions named. Some results given as binding are weak or reduced against the parent protein; the word gives no strength.

Amino acid sequences for entries named in this document (tags omitted).
UniProt P12367: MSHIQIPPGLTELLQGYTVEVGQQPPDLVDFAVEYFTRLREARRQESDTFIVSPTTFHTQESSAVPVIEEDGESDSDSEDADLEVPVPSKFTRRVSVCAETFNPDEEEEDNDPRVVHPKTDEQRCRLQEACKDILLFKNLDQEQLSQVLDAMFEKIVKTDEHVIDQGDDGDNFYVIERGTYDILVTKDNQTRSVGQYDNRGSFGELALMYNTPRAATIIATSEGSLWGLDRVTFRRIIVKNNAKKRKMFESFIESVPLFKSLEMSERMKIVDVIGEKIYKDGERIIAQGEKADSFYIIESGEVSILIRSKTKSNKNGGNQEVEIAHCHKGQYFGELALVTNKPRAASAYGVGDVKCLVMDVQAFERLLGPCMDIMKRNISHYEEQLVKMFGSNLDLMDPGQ

In the experiment the target is recombinant RIIα (type II alpha regulatory subunit of protein kinase A) (UniProt P12367). Description: T7 phage display screening; 96-well dish coated with recombinant RIIα; clones of a T7-select phage display library of human heart cDNA screened; bound clones amplified by PCR and sequenced; only the target purified.

B1: Chd8 peptide fragments isolated by T7 phage display (391–545aa of the Chd8-L1 isoform) (domain or fragment, UniProt Q9HCK8-1 391-545)
chain: GQRLSVPVKVVLQPQAGSSQGASSGLSVVKVLSASEVAALSSPASSAPHSGGKTGMEENRRLEHQKKQEKANRIVAEAIARARARGEQNIPRVLNEDELPSVRPEEEGEKKRRKKSAGERLKEEKPKKSKTSGASKTKGKSKLNTITPVVGKKRK
Turning to B1, the binding result is reported as “binds”.

These data come from publication PMC3468582.
